Measurements taken from the supplement of paper PMC8728848.
The list shows a part of the results.

Legend:
Test in all cases: glycan array binding signal (z-score within array); higher = stronger binding
Settings in all cases: glycan notation: IUPAC condensed, linker removed
[1] = target: Neu5Ac(a2-3)Gal(b1-4)GlcNAc(b1-3)GalNAc
In short: (§1)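 The binding signal is a Z-score computed within each array and averaged over linkers. Arrays of the same protein sequence at different concentrations or buffers were also averaged together. Data originate from 3228 arrays in the Consortium for Functional Glycomics database, kept only where the protein sequence was available.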

[2] = target: Neu5Ac(a2-3)Gal(b1-4)GlcNAc(b1-6)[Gal(b1-3)]GalNAc
In short: as §1

[3] = target: Neu5Ac(a2-3)Gal(b1-4)GlcNAc(b1-6)[Neu5Ac(a2-3)Gal(b1-3)]GalNAc
In short: as §1

[4] = target: Neu5Ac(a2-3)Gal(b1-4)GlcNAc6S
In short: as §1

[5] = target: Neu5Ac(a2-3)Gal(b1-4)[Fuc(a1-3)]GlcNAc
In short: as §1

[6] = target: Neu5Ac(a2-3)Gal(b1-4)[Fuc(a1-3)]GlcNAc(b1-3)Gal
In short: as §1

[7] = target: Neu5Ac(a2-3)Gal(b1-4)[Fuc(a1-3)]GlcNAc(b1-3)Gal(b1-4)GlcNAc
In short: as §1

[8] = target: Neu5Ac(a2-3)Gal(b1-4)[Fuc(a1-3)]GlcNAc(b1-3)Gal(b1-4)[Fuc(a1-3)]GlcNAc(b1-3)Gal(b1-4)[Fuc(a1-3)]GlcNAc
In short: as §1

[9] = target: Neu5Ac(a2-3)Gal(b1-4)[Fuc(a1-3)]GlcNAc(b1-3)GalNAc
In short: as §1

[10] = target: Neu5Ac(a2-3)Gal(b1-4)[Fuc(a1-3)]GlcNAc(b1-6)[Gal(b1-3)]GalNAc
In short: as §1

[11] = target: Neu5Ac(a2-3)Gal(b1-4)[Fuc(a1-3)]GlcNAc6S
In short: as §1

[12] = target: Neu5Ac(a2-3)Gal6S(b1-4)GlcNAc
In short: as §1

[13] = target: Neu5Ac(a2-3)Gal6S(b1-4)[Fuc(a1-3)]GlcNAc
In short: as §1

[14] = target: Neu5Ac(a2-3)GalNAc
In short: as §1

[15] = target: Neu5Ac(a2-3)GalNAc(b1-4)GlcNAc
In short: as §1

[16] = target: Neu5Ac(a2-3)[GalNAc(b1-4)]Gal(b1-4)Glc
In short: as §1

[17] = target: Neu5Ac(a2-3)[GalNAc(b1-4)]Gal(b1-4)GlcNAc
In short: as §1

[18] = target: Neu5Ac(a2-3)[GalNAc(b1-4)]Gal(b1-4)GlcNAc(b1-3)GalNAc
In short: as §1

[19] = target: Neu5Ac(a2-3)[Neu5Ac(a2-6)]GalNAc
In short: as §1

[20] = target: Neu5Ac(a2-6)Gal
In short: as §1

[21] = target: Neu5Ac(a2-6)Gal(b1-3)GlcNAc(b1-3)[Gal(b1-4)GlcNAc(b1-6)]Gal(b1-4)Glc
In short: as §1

[22] = target: Neu5Ac(a2-6)Gal(b1-4)Glc
In short: as §1

[23] = target: Neu5Ac(a2-6)Gal(b1-4)GlcNAc
In short: as §1

[24] = target: Neu5Ac(a2-6)Gal(b1-4)GlcNAc(b1-2)Man(a1-3)Man(b1-4)GlcNAc(b1-4)GlcNAc
In short: as §1

[25] = target: Neu5Ac(a2-6)Gal(b1-4)GlcNAc(b1-2)Man(a1-3)[Gal(b1-4)GlcNAc(b1-2)Man(a1-6)]Man(b1-4)GlcNAc(b1-4)GlcNAc
In short: as §1

[26] = target: Neu5Ac(a2-6)Gal(b1-4)GlcNAc(b1-2)Man(a1-3)[GlcNAc(b1-2)Man(a1-6)]Man(b1-4)GlcNAc(b1-4)GlcNAc
In short: as §1

[27] = target: Neu5Ac(a2-6)Gal(b1-4)GlcNAc(b1-2)Man(a1-3)[GlcNAc(b1-2)Man(b1-4)GlcNAc(b1-2)Man(a1-6)]Man(b1-4)GlcNAc(b1-4)GlcNAc
In short: as §1

[28] = target: Neu5Ac(a2-6)Gal(b1-4)GlcNAc(b1-2)Man(a1-3)[Man(a1-6)]Man(b1-4)GlcNAc(b1-4)GlcNAc
In short: as §1

[29] = target: Neu5Ac(a2-6)Gal(b1-4)GlcNAc(b1-2)Man(a1-3)[Neu5Ac(a2-6)Gal(b1-4)GlcNAc(b1-2)Man(a1-6)]Man(b1-4)GlcNAc(b1-4)GlcNAc
In short: as §1

[30] = target: Neu5Ac(a2-6)Gal(b1-4)GlcNAc(b1-2)Man(a1-6)Man(b1-4)GlcNAc(b1-4)GlcNAc
In short: as §1

[31] = target: Neu5Ac(a2-6)Gal(b1-4)GlcNAc(b1-2)Man(a1-6)[Gal(b1-4)GlcNAc(b1-2)Man(a1-3)]Man(b1-4)GlcNAc(b1-4)GlcNAc
In short: as §1

[32] = target: Neu5Ac(a2-6)Gal(b1-4)GlcNAc(b1-2)Man(a1-6)[GlcNAc(b1-2)Man(a1-3)]Man(b1-4)GlcNAc(b1-4)GlcNAc
In short: as §1

[33] = target: Neu5Ac(a2-6)Gal(b1-4)GlcNAc(b1-2)Man(a1-6)[Man(a1-3)]Man(b1-4)GlcNAc(b1-4)GlcNAc
In short: as §1

[34] = target: Neu5Ac(a2-6)Gal(b1-4)GlcNAc(b1-3)Gal(b1-3)GlcNAc
In short: as §1

[35] = target: Neu5Ac(a2-6)Gal(b1-4)GlcNAc(b1-3)Gal(b1-4)GlcNAc
In short: as §1

[36] = target: Neu5Ac(a2-6)Gal(b1-4)GlcNAc(b1-3)Gal(b1-4)GlcNAc(b1-3)Gal(b1-4)GlcNAc
In short: as §1

[37] = target: Neu5Ac(a2-6)Gal(b1-4)GlcNAc(b1-3)Gal(b1-4)[Fuc(a1-3)]GlcNAc(b1-3)Gal(b1-4)[Fuc(a1-3)]GlcNAc
In short: as §1

[38] = target: Neu5Ac(a2-6)Gal(b1-4)GlcNAc(b1-3)GalNAc
In short: as §1

[39] = target: Neu5Ac(a2-6)Gal(b1-4)GlcNAc6S
In short: as §1

[40] = target: Neu5Ac(a2-6)GalNAc
In short: as §1

[41] = target: Neu5Ac(a2-6)GalNAc(b1-4)GlcNAc
In short: as §1

[42] = target: Neu5Ac(a2-6)GlcNAc(b1-4)GlcNAc
In short: as §1

[43] = target: Neu5Ac(a2-6)GlcNAc(b1-4)GlcNAc(b1-4)GlcNAc
In short: as §1

[44] = target: Neu5Ac(a2-8)Neu5Ac
In short: as §1

[45] = target: Neu5Ac(a2-8)Neu5Ac(a2-3)Gal(b1-3)GalNAc(b1-4)[Neu5Ac(a2-8)Neu5Ac(a2-3)]Gal(b1-4)Glc
In short: as §1

[46] = target: Neu5Ac(a2-8)Neu5Ac(a2-3)Gal(b1-4)Glc
In short: as §1

[47] = target: Neu5Ac(a2-8)Neu5Ac(a2-3)[Gal(b1-3)GalNAc(b1-4)]Gal(b1-4)Glc
In short: as §1

[48] = target: Neu5Ac(a2-8)Neu5Ac(a2-3)[GalNAc(b1-4)]Gal(b1-4)Glc
In short: as §1

[49] = target: Neu5Ac(a2-8)Neu5Ac(a2-8)Neu5Ac
In short: as §1

[50] = target: Neu5Ac(a2-8)Neu5Ac(a2-8)Neu5Ac(a2-3)Gal(b1-4)Glc
In short: as §1

[51] = target: Neu5Ac(a2-8)Neu5Ac(a2-8)Neu5Ac(a2-3)[GalNAc(b1-4)]Gal(b1-4)Glc
In short: as §1

[52] = target: Neu5Ac(a2-8)Neu5Ac(a2-8)Neu5Ac(a2-8)Neu5Ac(a2-3)[GalNAc(b1-4)]Gal(b1-4)Glc
In short: as §1

[53] = target: Neu5Ac(b2-6)Gal(b1-4)GlcNAc
In short: as §1

[54] = target: Neu5Ac(b2-6)GalNAc
In short: as §1

[55] = target: Neu5Ac9Ac(a2-3)Gal(b1-3)GlcNAc
In short: as §1

[56] = target: Neu5Ac9Ac(a2-3)Gal(b1-4)GlcNAc
In short: as §1

[57] = target: Neu5Ac9Ac(a2-6)Gal(b1-4)GlcNAc
In short: as §1

[58] = target: Neu5Gc(a2-3)Gal(b1-3)GlcNAc
In short: as §1

[59] = target: Neu5Gc(a2-3)Gal(b1-3)[Fuc(a1-4)]GlcNAc
In short: as §1

[60] = target: Neu5Gc(a2-3)Gal(b1-4)Glc
In short: as §1

[61] = target: Neu5Gc(a2-3)Gal(b1-4)GlcNAc
In short: as §1

[62] = target: Neu5Gc(a2-3)Gal(b1-4)[Fuc(a1-3)]GlcNAc
In short: as §1

[63] = target: Neu5Gc(a2-6)Gal(b1-4)GlcNAc
In short: as §1

[64] = target: Neu5Gc(a2-6)GalNAc
In short: as §1

[65] = target: Neu5Gc(b2-6)Gal(b1-4)GlcNAc
In short: as §1

B1: CD72 ectodomain (Homo sapiens), P21854 (protein)
chain: RYLQVSQQLQQTNRVLEVTNSSLRQQLRLKITQLGQSAEDLQGSRRELAQSQEALQVEQRAHQAAEGQLQACQADRQKTKETLQSEEQQRRALEQKLSNMENRLKPFFTCGSADTCCPSGWIMHQKSCFYISLTSKNWQESQKQCETLSSKLATFSEIYPQSHSYYFLNSLLPNGGSGNSYWTGLSSNKDWKLTDDTQRTRTYAQSSKCNKVHKTWSWWTLESESCRSSLPYICEMTAFRFPD
**Q.** Which results are given for B1?
**A.** glycan array binding signal (z-score) [1]: 1.21; glycan array binding signal (z-score) [2]: -0.18; glycan array binding signal (z-score) [3]: -0.389; glycan array binding signal (z-score) [4]: 0.59; glycan array binding signal (z-score) [5]: -0.591; glycan array binding signal (z-score) [6]: -0.755; glycan array binding signal (z-score) [7]: 0.41; glycan array binding signal (z-score) [8]: 1.73; glycan array binding signal (z-score) [9]: 1.77; glycan array binding signal (z-score) [10]: -1.21; glycan array binding signal (z-score) [11]: -0.142; glycan array binding signal (z-score) [12]: -0.796; glycan array binding signal (z-score) [13]: -0.268; glycan array binding signal (z-score) [14]: -0.043; glycan array binding signal (z-score) [15]: -0.397; glycan array binding signal (z-score) [16]: 0.769; glycan array binding signal (z-score) [17]: 0.096; glycan array binding signal (z-score) [18]: -0.312; glycan array binding signal (z-score) [19]: 0.913; glycan array binding signal (z-score) [20]: 0.052; glycan array binding signal (z-score) [21]: 0.399; glycan array binding signal (z-score) [22]: -0.503; glycan array binding signal (z-score) [23]: -0.323; glycan array binding signal (z-score) [24]: -0.04; glycan array binding signal (z-score) [25]: -0.942; glycan array binding signal (z-score) [26]: 0.516; glycan array binding signal (z-score) [27]: -0.452; glycan array binding signal (z-score) [28]: 0.787; glycan array binding signal (z-score) [29]: 0.219; glycan array binding signal (z-score) [30]: -0.717; glycan array binding signal (z-score) [31]: 0.833; glycan array binding signal (z-score) [32]: 0.781; glycan array binding signal (z-score) [33]: -0.831; glycan array binding signal (z-score) [34]: -0.438; glycan array binding signal (z-score) [35]: 0.243; glycan array binding signal (z-score) [36]: 0.371; glycan array binding signal (z-score) [37]: -0.002; glycan array binding signal (z-score) [38]: -0.502; glycan array binding signal (z-score) [39]: -0.391; glycan array binding signal (z-score) [40]: -0.291; glycan array binding signal (z-score) [41]: -0.489; glycan array binding signal (z-score) [42]: -1.1; glycan array binding signal (z-score) [43]: -0.102; glycan array binding signal (z-score) [44]: 0.663; glycan array binding signal (z-score) [45]: 0.757; glycan array binding signal (z-score) [46]: 0.194; glycan array binding signal (z-score) [47]: 0.027; glycan array binding signal (z-score) [48]: -0.033; glycan array binding signal (z-score) [49]: 0.619; glycan array binding signal (z-score) [50]: -0.33; glycan array binding signal (z-score) [51]: -1.1; glycan array binding signal (z-score) [52]: -0.171; glycan array binding signal (z-score) [53]: 0.158; glycan array binding signal (z-score) [54]: -0.169; glycan array binding signal (z-score) [55]: 1.21; glycan array binding signal (z-score) [56]: -0.525; glycan array binding signal (z-score) [57]: 0.69; glycan array binding signal (z-score) [58]: -0.864; glycan array binding signal (z-score) [59]: 0.943; glycan array binding signal (z-score) [60]: -0.431; glycan array binding signal (z-score) [61]: 0.844; glycan array binding signal (z-score) [62]: -0.217; glycan array binding signal (z-score) [63]: 0.368; glycan array binding signal (z-score) [64]: -0.685; glycan array binding signal (z-score) [65]: -1.35
